Test results: publication PMC10390781
Results are given in words; binding and its absence hold for the method and conditions named. Binding seen in cells or lysates may run through a third protein. Some binding calls cover weakened binding; strength is not graded here.

Target: T1, IRF4 transcription factor (human (endogenous in MM.1S)) (UniProt Q15306)
T1 sequence: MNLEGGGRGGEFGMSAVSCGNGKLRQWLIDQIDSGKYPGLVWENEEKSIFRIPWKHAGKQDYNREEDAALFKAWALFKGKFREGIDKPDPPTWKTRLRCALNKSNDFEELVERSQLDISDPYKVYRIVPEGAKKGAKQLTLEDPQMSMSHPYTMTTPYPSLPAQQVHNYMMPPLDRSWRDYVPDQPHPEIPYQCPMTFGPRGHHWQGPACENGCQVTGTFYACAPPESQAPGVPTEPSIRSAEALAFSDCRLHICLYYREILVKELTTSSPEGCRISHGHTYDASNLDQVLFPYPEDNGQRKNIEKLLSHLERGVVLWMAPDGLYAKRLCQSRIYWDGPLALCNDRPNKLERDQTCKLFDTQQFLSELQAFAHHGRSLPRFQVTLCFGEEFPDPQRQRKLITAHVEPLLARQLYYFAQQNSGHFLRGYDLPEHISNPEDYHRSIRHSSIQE
Experiment: co-IP; 5 ug anti-IRF4 (F-4) agarose conjugate on 50 ug desalted nuclear protein of MM.1S cells exposed to Dex or EtOH for 1 h, overnight at 2-8 C, washed twice with cold PBS; Western blot with IRF4 and GR antibodies

Substance: glucocorticoid receptor (from UniProt P04150 1-777)
- binding: binds
